## Screening data, single-dose tests

Sequences of proteins named here, by UniProt entry; tags and fusion partners are left off. Residues count along the entry.
UniProt Q8IDJ8, 1-583: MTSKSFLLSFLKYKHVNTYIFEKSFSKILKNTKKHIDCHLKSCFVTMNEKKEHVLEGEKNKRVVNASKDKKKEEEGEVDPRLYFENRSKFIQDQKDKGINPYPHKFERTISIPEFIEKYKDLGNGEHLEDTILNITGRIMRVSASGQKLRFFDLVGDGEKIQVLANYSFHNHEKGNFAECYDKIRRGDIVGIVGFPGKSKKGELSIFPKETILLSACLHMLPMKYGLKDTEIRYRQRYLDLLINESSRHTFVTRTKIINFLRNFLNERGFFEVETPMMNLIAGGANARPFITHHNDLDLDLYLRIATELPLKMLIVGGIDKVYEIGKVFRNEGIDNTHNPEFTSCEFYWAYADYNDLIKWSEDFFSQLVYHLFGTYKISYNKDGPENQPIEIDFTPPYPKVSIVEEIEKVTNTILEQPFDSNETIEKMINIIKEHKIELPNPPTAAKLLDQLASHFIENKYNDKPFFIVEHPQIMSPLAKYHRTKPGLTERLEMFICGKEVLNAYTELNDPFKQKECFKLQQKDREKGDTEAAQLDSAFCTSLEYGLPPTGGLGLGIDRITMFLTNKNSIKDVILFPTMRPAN
UniProt Q4DA54, 1-478: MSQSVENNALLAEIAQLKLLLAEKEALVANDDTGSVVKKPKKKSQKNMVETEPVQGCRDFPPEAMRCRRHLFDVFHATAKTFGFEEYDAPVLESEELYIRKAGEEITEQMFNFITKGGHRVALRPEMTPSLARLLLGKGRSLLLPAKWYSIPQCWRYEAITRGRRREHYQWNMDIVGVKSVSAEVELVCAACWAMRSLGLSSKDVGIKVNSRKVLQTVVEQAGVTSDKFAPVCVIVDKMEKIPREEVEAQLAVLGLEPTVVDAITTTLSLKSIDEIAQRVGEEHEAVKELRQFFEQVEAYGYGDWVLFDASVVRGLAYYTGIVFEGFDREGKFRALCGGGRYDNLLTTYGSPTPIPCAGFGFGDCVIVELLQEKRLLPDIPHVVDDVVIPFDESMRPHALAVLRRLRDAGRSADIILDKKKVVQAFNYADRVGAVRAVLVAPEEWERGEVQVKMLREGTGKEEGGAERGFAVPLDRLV
UniProt I6X8D2, whole entry: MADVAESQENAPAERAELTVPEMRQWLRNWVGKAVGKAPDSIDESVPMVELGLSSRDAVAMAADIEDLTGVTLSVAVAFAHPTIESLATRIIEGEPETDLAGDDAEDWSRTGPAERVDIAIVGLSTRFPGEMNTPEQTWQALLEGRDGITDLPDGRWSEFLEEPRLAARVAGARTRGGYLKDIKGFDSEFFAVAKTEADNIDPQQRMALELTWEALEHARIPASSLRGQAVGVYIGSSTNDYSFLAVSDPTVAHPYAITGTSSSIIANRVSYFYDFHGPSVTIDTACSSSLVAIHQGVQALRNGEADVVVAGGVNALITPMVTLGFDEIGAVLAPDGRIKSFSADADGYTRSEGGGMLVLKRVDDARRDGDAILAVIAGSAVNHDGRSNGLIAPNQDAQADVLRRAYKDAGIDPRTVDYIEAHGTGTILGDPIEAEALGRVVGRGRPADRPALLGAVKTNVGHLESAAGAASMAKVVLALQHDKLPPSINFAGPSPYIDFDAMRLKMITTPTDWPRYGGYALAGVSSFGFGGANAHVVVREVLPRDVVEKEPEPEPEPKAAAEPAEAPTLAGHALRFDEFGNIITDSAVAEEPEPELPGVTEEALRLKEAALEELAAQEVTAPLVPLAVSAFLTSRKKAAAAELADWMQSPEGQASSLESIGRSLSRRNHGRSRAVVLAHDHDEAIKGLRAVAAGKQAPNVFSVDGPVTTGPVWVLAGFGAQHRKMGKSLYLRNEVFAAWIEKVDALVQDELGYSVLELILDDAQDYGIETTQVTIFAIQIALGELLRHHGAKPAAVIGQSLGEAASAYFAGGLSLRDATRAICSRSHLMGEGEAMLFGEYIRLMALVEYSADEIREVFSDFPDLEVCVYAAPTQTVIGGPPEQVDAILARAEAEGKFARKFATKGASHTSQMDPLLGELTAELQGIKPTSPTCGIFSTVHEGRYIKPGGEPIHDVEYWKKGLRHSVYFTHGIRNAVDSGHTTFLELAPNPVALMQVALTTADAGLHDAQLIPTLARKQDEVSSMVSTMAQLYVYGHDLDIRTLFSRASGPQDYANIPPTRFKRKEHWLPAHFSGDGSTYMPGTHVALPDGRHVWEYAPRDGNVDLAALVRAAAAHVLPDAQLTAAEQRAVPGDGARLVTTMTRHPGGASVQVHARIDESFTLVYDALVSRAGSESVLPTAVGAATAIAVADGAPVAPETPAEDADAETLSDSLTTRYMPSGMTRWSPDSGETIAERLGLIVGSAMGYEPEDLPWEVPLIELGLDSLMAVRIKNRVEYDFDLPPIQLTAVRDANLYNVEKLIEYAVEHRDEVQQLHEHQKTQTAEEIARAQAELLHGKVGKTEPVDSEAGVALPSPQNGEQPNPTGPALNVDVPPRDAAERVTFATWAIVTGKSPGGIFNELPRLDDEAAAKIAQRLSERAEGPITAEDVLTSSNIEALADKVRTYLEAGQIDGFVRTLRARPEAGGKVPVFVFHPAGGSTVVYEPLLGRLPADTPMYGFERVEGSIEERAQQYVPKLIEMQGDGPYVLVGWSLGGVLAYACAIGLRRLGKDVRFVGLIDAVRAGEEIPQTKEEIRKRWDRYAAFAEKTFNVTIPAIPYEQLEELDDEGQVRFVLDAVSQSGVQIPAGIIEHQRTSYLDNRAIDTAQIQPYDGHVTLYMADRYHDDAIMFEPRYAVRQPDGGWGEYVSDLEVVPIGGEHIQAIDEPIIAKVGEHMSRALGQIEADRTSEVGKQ

PfKRS1: 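Lysine-tRNA ligase, Plasmodium falciparum 3D7 (UniProt Q8IDJ8). Enzyme assay of the cytosolic lysyl-tRNA synthetase in 384-well plates, read by luminescence. Concentration: 30 µM. Direction is inferred from only a few compounds that gave an IC50; most scored high, so higher reads as stronger inhibition. Of about 69,000 compounds tested this way, about 49 (0.071%) reached 50% or more in at least one test.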
TcHisRS: 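Enzyme assay of histidyl-tRNA synthetase; the read-out is not stated. Target: Histidine-tRNA ligase, Trypanosoma cruzi CL Brener (UniProt Q4DA54). Concentration: 30 µM. Higher reads as stronger inhibition (inferred: compounds with an IC50 in retests scored well above the rest). About 69,000 compounds were tested under these conditions; 0.045% (about 31) showed 50% or more at least once.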
Pks13 thioesterase: 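Enzyme assay of the thioesterase domain of polyketide synthase 13; the read-out is not stated. Target: Polyketide synthase Pks13, Mycobacterium tuberculosis (UniProt I6X8D2). Tested at 30 µM. Higher reads as stronger inhibition (inferred from which compounds were picked for retests). Size under these conditions: about 67,000 compounds, about 300 of them at 50% or above in at least one test.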

Each number is a percent effect as filed.
The record does not define 0% and 100%; most values in the screen are far below 50% and negative numbers occur (in some assays of this library far below -100).
The compounds are a random part of those screened.

{"structure": "Cc1ccc(C2CCCCCN2Cc2cn(C)nc2C)cc1", "stereo": "configuration not stated", "PfKRS1": 1.403, "TcHisRS": 6.522, "Pks13 thioesterase": -14.44}
{"structure": "CNC(=O)c1cccc(CNC2CCSc3c(Cl)cccc32)c1", "stereo": "configuration not stated", "PfKRS1": 0.09685, "TcHisRS": 4.902, "Pks13 thioesterase": -8.473}
{"structure": "NCC1(c2cccc(C(F)(F)F)c2)CC1", "PfKRS1": -6.141, "TcHisRS": -3.261, "Pks13 thioesterase": 0.06264}
{"structure": "CC(=O)N1CCC(c2n[nH]cc2-c2ccnc(N)c2)C1", "stereo": "configuration not stated", "PfKRS1": -2.035, "TcHisRS": 6.061, "Pks13 thioesterase": -5.949}
{"structure": "Fc1ccc(F)c(CN2CCC(c3cc4ncccc4cn3)CC2)c1", "PfKRS1": 3.298, "TcHisRS": 29.23, "Pks13 thioesterase": 7.421}
{"structure": "Cn1ccc(NC(=O)Cc2cccc(F)c2)n1", "PfKRS1": 2.372, "TcHisRS": 2.674, "Pks13 thioesterase": -10.48}
{"structure": "CS(=O)(=O)N1CCCC12CCCN(S(=O)(=O)c1cc(F)cc(F)c1)C2", "stereo": "configuration not stated", "PfKRS1": -0.1223, "TcHisRS": 1.695, "Pks13 thioesterase": -10.51}
{"structure": "COc1cccc(C(=O)NCC(O)c2cccs2)c1", "stereo": "configuration not stated", "PfKRS1": 7.453, "TcHisRS": 3.306, "Pks13 thioesterase": -11.73}
{"structure": "CN1N=C(C(=O)N(Cc2ccco2)C2CCCC2)CCC1=O", "PfKRS1": -0.4704, "TcHisRS": 3.015, "Pks13 thioesterase": -8.966}
{"structure": "Fc1ccc(-c2c[nH]c([C@@H]3COCCN3)n2)cc1", "PfKRS1": 6.415, "TcHisRS": -0.4975, "Pks13 thioesterase": -33.26}
{"structure": "CCC(NC(=O)C1CCN(C(C)C)CC1)c1cn2cccnc2n1", "stereo": "configuration not stated", "PfKRS1": -1.287, "TcHisRS": -5.319, "Pks13 thioesterase": 6.415}
{"structure": "O=C(NCC1Cn2nnc(-c3cccc(F)c3)c2CO1)c1ccc[nH]1", "stereo": "configuration not stated", "PfKRS1": 4.047, "TcHisRS": 7.438, "Pks13 thioesterase": -22.71}
{"structure": "CCN(CC1COc2ccccc2O1)C(=O)C1=NN(C)C(=O)CC1", "stereo": "configuration not stated", "PfKRS1": 3.694, "TcHisRS": 3.012, "Pks13 thioesterase": -2.817}
{"structure": "Cc1cnccc1-c1cnn(CCNC(=O)c2ccncc2)c1C1CC1", "PfKRS1": 2.243, "TcHisRS": 13.16, "Pks13 thioesterase": -17.01}
{"structure": "Cc1ccc(Cn2cc(C)c(N)n2)cc1", "PfKRS1": -2.11, "TcHisRS": -2.312, "Pks13 thioesterase": -29.5}
{"structure": "Cn1nnn(-c2ccc(NS(=O)(=O)c3ccc(Br)cc3)cc2)c1=O", "PfKRS1": 1.12, "TcHisRS": 2.062, "Pks13 thioesterase": -49.41}
{"structure": "COCCN1CCC2(CC1)CN(C(=O)C1CC1)c1ccc(F)cc12", "PfKRS1": 3.648, "TcHisRS": 10.68, "Pks13 thioesterase": -34.95}
{"structure": "Cc1csc(N2CCN(CCCN3CCCC3=O)CC2)n1", "PfKRS1": 9.345, "TcHisRS": 6.349, "Pks13 thioesterase": -33.27}
{"structure": "O=C1[C@H]2CN(Cc3ccoc3)C[C@H]2CN1Cc1cccnc1", "PfKRS1": -1.231, "TcHisRS": 5.911, "Pks13 thioesterase": -26.36}
{"structure": "CC(C)N1C(=O)CN(CCOCCO)CC1(C)C", "PfKRS1": 6.11, "TcHisRS": -1.042, "Pks13 thioesterase": -2.7}
{"structure": "Cc1c(NCc2ccc(C#N)cc2)cccc1S(=O)(=O)NC1CC1", "PfKRS1": 3.572, "TcHisRS": 4.545, "Pks13 thioesterase": -15.97}
{"structure": "Nc1ccc(C(=O)N2CCCC(c3nccn3Cc3cscn3)C2)cn1", "stereo": "configuration not stated", "PfKRS1": 3.223, "TcHisRS": -0.5025, "Pks13 thioesterase": -3.072}
{"structure": "Cc1cc(N2CCCC2(C)c2nc(C)cc(C(=O)N(C)C)n2)ncn1", "stereo": "configuration not stated", "PfKRS1": -1.764, "TcHisRS": 6.061, "Pks13 thioesterase": -2.437}

Once more, the final 2:

structure	PfKRS1	TcHisRS	Pks13 thioesterase
Nc1ccc(C(=O)N2CCCC(c3nccn3Cc3cscn3)C2)cn1 (configuration not stated)	3.223%	-0.5025%	-3.072%
Cc1cc(N2CCCC2(C)c2nc(C)cc(C(=O)N(C)C)n2)ncn1 (configuration not stated)	-1.764%	6.061%	-2.437%

Measurements from “University of Dundee, Small-Polar-MMV Screening Library” (2021), ChEMBL document CHEMBL3988442.